Experimental data from PMC7819943, “Rice protein-binding microarrays: a tool to detect cis-acting elements near promoter regions in rice”.
The list shows a part of the results.

target: T1, OsSMF1 (Oryza sativa, UniProt Q6ZLB0 1-436); experiment: protein-binding microarray (RPBM); PBS, 2% BSA, 51.3 ng/ul salmon testes DNA, 50 uM zinc acetate, 200 nM TF, 25 C, 1 h; high values mean tight binding; settings: protein: recombinant; tags: N-terminal polyhistidine and DsRed monomer fusion (pET32a); chain copies: 2; label: CyDye5-dUTP incorporated in the synthesized complementary strand; 3' TTTTT single-stranded linker to array surface; dsDNA, one strand shown
T1 sequence: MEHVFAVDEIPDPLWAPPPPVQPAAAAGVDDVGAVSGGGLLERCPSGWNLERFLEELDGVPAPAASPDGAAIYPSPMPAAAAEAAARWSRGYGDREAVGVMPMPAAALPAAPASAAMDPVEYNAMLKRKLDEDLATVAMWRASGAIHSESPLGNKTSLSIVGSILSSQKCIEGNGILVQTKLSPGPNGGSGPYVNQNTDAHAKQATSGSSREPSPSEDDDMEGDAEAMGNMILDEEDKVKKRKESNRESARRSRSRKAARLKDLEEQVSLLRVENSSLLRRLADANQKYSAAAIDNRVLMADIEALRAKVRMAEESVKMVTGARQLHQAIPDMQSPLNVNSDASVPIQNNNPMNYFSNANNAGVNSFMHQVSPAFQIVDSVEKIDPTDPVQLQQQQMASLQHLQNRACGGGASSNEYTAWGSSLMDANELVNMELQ
In short: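 Transcription factors, each fused N-terminally to a polyhistidine tag and DsRed, were expressed in E. coli BL21-CodonPlus and purified on Ni–NTA. A custom Agilent array was made double-stranded by primer extension with Cy5-dUTP and blocked with 2% BSA. It was incubated with 200 nM protein in PBS, 2% BSA, salmon testes DNA and 50 µM zinc acetate at 25 °C for 1 h, then washed. The binding signal is per-feature fluorescence intensity (arbitrary units) read on an Axon 4000B scanner.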

Sequence	binding signal
CGAAATCATGTGATACGTCAAGTGCACGTATACCAACTCACGGAGTCACCTAGTGCAG	28600 fluorescence intensity (a.u.)
ATTTAGCGGCTATCTCTGACTAAGTGCAGCTATTAGTGGTCGGAGTCACCTAGTGCAG	4790 fluorescence intensity (a.u.)
GAAGCTGCACAATAATTAGTTAAACCTCTACTCACTGCATCGGAGTCACCTAGTGCAG	30400 fluorescence intensity (a.u.)
CCAGTAGAGAGATCACACGTACACAACCCACAGTCTCGCCCGGAGTCACCTAGTGCAG	4740 fluorescence intensity (a.u.)
GCCGCCGCAGCCGGGTCGCCGCCGGATGACGCACCAATCGCGGAGTCACCTAGTGCAG	3900 fluorescence intensity (a.u.)
GCATTGAATATAGAGCAATTTGATGTGGCAAAACAATTGACGGAGTCACCTAGTGCAG	3910 fluorescence intensity (a.u.)
GACTCTTCATCTGACCTGTAGTGTAGGCCGTGTCCTGTCCCGGAGTCACCTAGTGCAG	3290 fluorescence intensity (a.u.)
TTACATATGGACCGGGCGCGTAAACCTCATCGTCTTTCTCCGGAGTCACCTAGTGCAG	3150 fluorescence intensity (a.u.)
CCACCACCACGTAATTAACGCTGCCTCGCTGTTAATGTTCCGGAGTCACCTAGTGCAG	4460 fluorescence intensity (a.u.)
TGTCTGTGTTTGTCCTGACTGATGATGCATTGACTCGTTGCGGAGTCACCTAGTGCAG	3490 fluorescence intensity (a.u.)
AGTTAATGGAGGAGCCACCGCCACGTAAGTGCCACGTAGGCGGAGTCACCTAGTGCAG	56200 fluorescence intensity (a.u.)
GGATTTACTGTCCTAAGTTTAATGGTAGAGTCATACATCTCGGAGTCACCTAGTGCAG	3420 fluorescence intensity (a.u.)
GGCGGAGGCGTGGGCGTCGACGGGGCGGGAAATACGCCAACGGAGTCACCTAGTGCAG	3490 fluorescence intensity (a.u.)
ACAGGTGGGGCCAGCACGCCACGTCTGACGTCTCCCTCTCCGGAGTCACCTAGTGCAG	14100 fluorescence intensity (a.u.)
TTCAACATTCGCAAATTCCCACGTAATGATTACTTTTAGACGGAGTCACCTAGTGCAG	3970 fluorescence intensity (a.u.)
AGGGGAAGGAAGCGCCTCGACCAACGTGGGTGCGGGTGGCCGGAGTCACCTAGTGCAG	3920 fluorescence intensity (a.u.)
CCTGCAGCCAGGTCCTCGTATCATAGATGACGACGACTTCCGGAGTCACCTAGTGCAG	4660 fluorescence intensity (a.u.)
CTCTCCAACTCGAGGAGGACACGCACGTTGCCACCACAGGCGGAGTCACCTAGTGCAG	3770 fluorescence intensity (a.u.)
TGTTTAGATACTAATTTAGAGTATTAAACATACATTAATTCGGAGTCACCTAGTGCAG	3450 fluorescence intensity (a.u.)
CGTCTCCTTCTTTTCCACGCCGCCGTCACGGAGTTCTCCTCGGAGTCACCTAGTGCAG	13200 fluorescence intensity (a.u.)
GCGCCGCTAATCCCTGTATCGCTGGACACGACACGTGCCCCGGAGTCACCTAGTGCAG	7780 fluorescence intensity (a.u.)

2 entries drawn at random from the list so far, as already listed:
Sequence	binding signal
CGAAATCATGTGATACGTCAAGTGCACGTATACCAACTCACGGAGTCACCTAGTGCAG	28600 fluorescence intensity (a.u.)
GCATTGAATATAGAGCAATTTGATGTGGCAAAACAATTGACGGAGTCACCTAGTGCAG	3910 fluorescence intensity (a.u.)

Additional results

Sequence	binding signal
GTGGTTGGCTGGTCGTTGCGTGGCCACCGCCTCCTCCCGACGGAGTCACCTAGTGCAG	4010 fluorescence intensity (a.u.)
ATTGTATAAGATCTGAAACTCACTGACTCACCTGTATTTGCGGAGTCACCTAGTGCAG	4230 fluorescence intensity (a.u.)
TCAACTATAAAATTGTAGATCGCGTCGAGGGCTACAAGTTCGGAGTCACCTAGTGCAG	3490 fluorescence intensity (a.u.)
GAGTGGTGTGCTGGGACGTGGCTGGGCAGGACTAGCCCTCCGGAGTCACCTAGTGCAG	5340 fluorescence intensity (a.u.)
ATGCCTACACACCACCACGCATGCACACCATCACACACATCGGAGTCACCTAGTGCAG	4940 fluorescence intensity (a.u.)
TGCACTGCCAAACACCACCTATTGCTCACAGGTGCGCCCGCGGAGTCACCTAGTGCAG	4180 fluorescence intensity (a.u.)
TTTGGATTGAGGGACGATTTTGTAATTCGATGACAAGTTGCGGAGTCACCTAGTGCAG	3380 fluorescence intensity (a.u.)
GCTGCACTCATCAGTGACCAGTGACCTCACTATCTAGTCACGGAGTCACCTAGTGCAG	3350 fluorescence intensity (a.u.)
TTGCCATTAAAGTTCTAGATGATTGTACTTGATTTGCATTCGGAGTCACCTAGTGCAG	3200 fluorescence intensity (a.u.)
GTCCGATCATCTCACGTGGCATCTCGAAGCGGCCGCATTACGGAGTCACCTAGTGCAG	5980 fluorescence intensity (a.u.)
TTTTGCACACATGTATCATGCTGACGTCAGCATGACGTGGCGGAGTCACCTAGTGCAG	61200 fluorescence intensity (a.u.)
TGCCGGCGGTGTTCTACAACGTGACGTTCAAGCCGTCCAACGGAGTCACCTAGTGCAG	3410 fluorescence intensity (a.u.)
TTTGACTCCGATTTTATCCGACGTGGCAGCTGACTCAGCGCGGAGTCACCTAGTGCAG	25300 fluorescence intensity (a.u.)
AATTATTAGATAACATATGGCTATCCATATAAATAGTGTACGGAGTCACCTAGTGCAG	13600 fluorescence intensity (a.u.)
TTTAAATGTGATGATTTGTTAGTGGATGATGATGTATCATCGGAGTCACCTAGTGCAG	3400 fluorescence intensity (a.u.)
ATACTTGAGGCAAGGCAATGCCATGACAACATCTTCTCATCGGAGTCACCTAGTGCAG	4290 fluorescence intensity (a.u.)
TCCGTTTGATTTGCGTCCGCCTCGTCAGGATCTCGTCACCCGGAGTCACCTAGTGCAG	4380 fluorescence intensity (a.u.)
GGAGCTCCTGTTCACTGGCTTGGACAACCAATGGCGTGGCCGGAGTCACCTAGTGCAG	4080 fluorescence intensity (a.u.)
GTAGCCGTACGTGGTGCAGTGGTGCGTCGGGAACGAGCTGCGGAGTCACCTAGTGCAG	3330 fluorescence intensity (a.u.)
ATGGTTTCAGTACATGCTATTGACGTATGCTTTTCTATTTCGGAGTCACCTAGTGCAG	3930 fluorescence intensity (a.u.)
TGGTTCAGAAAGAATTGCCAAGACCGGAGCTGGAGGTGTGCGGAGTCACCTAGTGCAG	3640 fluorescence intensity (a.u.)
